B1: H0La134 (H0-SKSC / La134) (antibody, V domains shown)
VH: QVQLVQSGAEVKKPGASVKVSCKASGYTFTGYIMNWVRQAPGQGLEWMGLINPYNGGTSYNQKFKGRVTITADESTSTAYMELSSLRSEDTAVYYCARDGYDDGPYTMDYWGQGTLVTVSS
VL: DIQMTQSPSSLSASVGDRVTITCRTSENIYRFLAWYQQKPGKAPKLLIYNAKTLAKGVPSRFSGSGSGTDFTLTISSLQPEDFATYYCQHHYESPLTFGGGTKVEIKR
B2: Ha401La402 (Ha401-SKSC / La402) (antibody, V domains shown)
VH: B1 VH with I33V, M34I, S59D
VL: B1 VL with R24Q, L33V, E93D
B3: H17L11 (H17-M58 / L11) (antibody, V domains shown)
VH: B1 VH with I33V, M34L, S59D, Q62P, K63Q, K65Q, G66D
VL: B1 VL with R24Q, N28D, L33V, K52Q, L54E, K56Q, E93D
B4: H19L12 (H19-M58 / L12) (antibody, V domains shown)
VH: B1 VH with I33A, S59D, Q62P, K63Q, K65Q, G66D
VL: B1 VL with R24Q, N28D, R31S, L33V, K52Q, L54E, K56Q, E93D
B5: H0La326 (H0-SKSC / La326) (antibody, name in Kabat numbering, V domains shown)
VH: B1 VH
VL: B1 VL with R31S, T97F
B6: H0La328 (H0-SKSC / La328) (antibody, V domains shown)
VH: B1 VH
VL: B1 VL with R31S, S94D
B7: H0La303 (H0-SKSC / La303) (antibody, V domains shown)
VH: B1 VH
VL: B1 VL with R31S, E93D
B8: H0La130 (H0-SKSC / La130) (antibody, V domains shown)
VH: B1 VH
VL: B1 VL with L33V
B9: chimeric NS23 (human gamma1, kappa) (antibody, V domains shown)
VH: EVQLQQSGPELVKPGTSMKISCKASGYSFTGYIMNWVKQSHGKNLEWIGLINPYNGGAEYNQKFKDKATFTVDKSSSTAYMELLSLTSEDSAVYYCARDGYDDGPYTMDYWGQGTSVTVSS
VL: DIQMTQSPASLSASVGETVTFTCRANENIYSYLAWYQQKQGKSPQLLVYNAKTLAEGVPSRFSGSGSGTQFSLKINSLQPEDFGSYYCQHHYGTPPTFGGGTKLEIK

Numbering of substitutions follows the chain as printed. These are yes or no findings as the source states them, for the method shown. Some binding calls cover weakened binding; strength is not graded here.

In one assay the target is T1, rhNR10 (recombinant human NR10) (human) (UniProt Q8NI17).
T1 sequence: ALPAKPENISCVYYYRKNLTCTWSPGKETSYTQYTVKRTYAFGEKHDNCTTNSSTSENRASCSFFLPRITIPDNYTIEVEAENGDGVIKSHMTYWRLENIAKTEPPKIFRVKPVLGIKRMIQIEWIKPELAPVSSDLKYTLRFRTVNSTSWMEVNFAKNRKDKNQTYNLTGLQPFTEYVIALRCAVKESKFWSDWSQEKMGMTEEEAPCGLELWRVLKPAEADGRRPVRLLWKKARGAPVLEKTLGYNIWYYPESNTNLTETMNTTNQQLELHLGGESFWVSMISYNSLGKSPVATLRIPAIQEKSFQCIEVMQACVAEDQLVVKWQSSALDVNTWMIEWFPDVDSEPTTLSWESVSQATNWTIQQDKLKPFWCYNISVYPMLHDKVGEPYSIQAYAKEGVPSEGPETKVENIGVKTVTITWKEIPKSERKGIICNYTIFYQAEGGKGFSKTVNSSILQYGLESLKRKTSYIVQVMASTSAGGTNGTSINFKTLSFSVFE
Description: SPR, Biacore T100; antibody captured on Protein A, rhNR10 as analyte.
As to B1, the binding entry is given as “binds”.

For the molecule B2, the binding result is reported as “binds”.

B3: the binding result is given as “binds”.

Turning to B4, the binding entry was “binds”.

For the molecule B5, the binding entry is reported as “binds”.

Consider B6, for which the binding result is recorded as “binds”.

With B7, the binding result is recorded as “binds”.

With B8, the binding result is “binds”.

The next assay addresses cytoplasmic domain-lacking human NR10 on CHO cells (hNR10-expressing CHO cells) (human) (UniProt Q8NI17). The assay can be described thus: FMAT competition on hNR10-expressing CHO cells: unlabeled chimeric antibody titrated against 8.8x10^-2 µg/ml FMAT Blue-NS22; FL1 = cell-bound labeled NS22.
In the case of B9, the binding entry is given as “binds”.

The next assay has the same target. Description: FMAT competition; FMAT Blue-NS22 on hNR10-expressing CHO cells; competitor FMAT Blue-NS22.
As to B9, the binding entry is listed as “binds”.

The record behind these values is patent US20110129459A1.
